No constants are given. Whether binding was seen depends on the method and setting. In cells and extracts the contact can be indirect. Some entries that bind do so weakly or less than the wild type.
Target: T1, dual-specificity tyrosine phosphorylation-regulated kinase 2 (human (endogenous in cells; the cell line is not named, all cell lines of the paper are human)) (UniProt Q92630)
T1 sequence: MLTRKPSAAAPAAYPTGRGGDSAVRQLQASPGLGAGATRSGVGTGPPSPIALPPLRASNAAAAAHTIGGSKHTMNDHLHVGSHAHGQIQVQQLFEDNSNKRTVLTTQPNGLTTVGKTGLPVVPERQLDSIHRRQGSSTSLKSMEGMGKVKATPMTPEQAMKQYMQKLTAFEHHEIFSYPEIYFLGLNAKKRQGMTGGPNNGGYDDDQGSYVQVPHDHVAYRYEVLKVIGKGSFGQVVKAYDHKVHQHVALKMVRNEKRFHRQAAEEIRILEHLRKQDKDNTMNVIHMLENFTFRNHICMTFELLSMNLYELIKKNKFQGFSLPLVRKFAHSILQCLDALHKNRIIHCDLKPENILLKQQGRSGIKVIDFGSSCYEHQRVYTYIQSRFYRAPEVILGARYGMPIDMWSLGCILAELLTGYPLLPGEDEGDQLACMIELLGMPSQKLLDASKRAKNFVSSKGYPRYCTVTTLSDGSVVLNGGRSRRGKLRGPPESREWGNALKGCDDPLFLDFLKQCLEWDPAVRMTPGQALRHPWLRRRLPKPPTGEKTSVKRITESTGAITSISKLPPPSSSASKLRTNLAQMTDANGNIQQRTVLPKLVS
Assay: co-IP; cell lysate (PBS with Triton X-100, CHAPS, protease inhibitors) incubated with anti-DYRK2 antibody 2 h at 4 °C, then protein A-Sepharose beads overnight at 4 °C; rabbit IgG as control; 1% of the lysate as input; blot for p-4E-BP1 (Thr37/46)

Sequences of proteins named here, by UniProt entry; tags and fusion partners are left off.
UniProt Q13541: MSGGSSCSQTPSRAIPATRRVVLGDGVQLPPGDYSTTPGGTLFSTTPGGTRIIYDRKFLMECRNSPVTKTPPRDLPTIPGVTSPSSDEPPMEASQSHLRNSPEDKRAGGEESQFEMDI

Substance: 4E-binding protein 1 phosphorylated at Thr37/46 (from UniProt Q13541 1-118)
- binding: binds
